Measurements reported in PMC5996148.
Values joined by “and” are separate entries in the source; they are usually repeats but may differ in a detail not shown here. Identical values can stand only once. The list shows a part of the results.

Key:
Experiment in all cases: protein microarray (ProtoArray v5.0), streptavidin-Alexa Fluor 647
Conditions in all cases: 3'-biotin; 20 mM Tris (pH 7.5), 5 mM MgCl2, 100 mM KCl, 0.1% Tween-20, A/T-rich and random oligonucleotide blockers; temperature not stated; high values mean tight binding
RNF141 (human) = system: RNF141 (human)
RNF34 (human) = system: RNF34 (human)
ROM1 (human) = system: ROM1 (human)
RP11-49G10.8 (human) = system: RP11-49G10.8 (human)
RP2 (human) = system: RP2 (human)
RP5-860F19.3 (human) = system: RP5-860F19.3 (human)
RPA2 (human) = system: RPA2 (human)
RPA4 (human) = system: RPA4 (human)
RPAIN (human) = system: RPAIN (human)
RPE (human) = system: RPE (human)

Question: For “GGGAGGCTGAGGCAGG [G4-1 biotinylated (PQS2)]”, which binding signal (RNF141 (human)) is on record?
Answer: Its binding signal is -0.358 z-score.

Question: And the binding signal (RNF34 (human))?
Answer: The binding signal was -0.319 z-score and -0.278 z-score.

Question: What about the binding signal (ROM1 (human)) of the same sequence?
Answer: The binding signal was -0.32 z-score.

Question: And the binding signal (RP11-49G10.8 (human))?
Answer: Its binding signal is -0.338 z-score.

Question: What about the binding signal (RP2 (human)) of the same sequence?
Answer: The binding signal was -0.3 z-score.

Question: And the binding signal (RP5-860F19.3 (human))?
Answer: Its binding signal is -0.333 z-score.

Question: What about the binding signal (RPA2 (human)) of the same sequence?
Answer: The binding signal was -0.323 z-score.

Question: And the binding signal (RPA4 (human))?
Answer: The binding signal was -0.34 z-score.

Question: And the binding signal (RPAIN (human))?
Answer: The binding signal was -0.319 z-score.

Question: And the binding signal (RPE (human))?
Answer: Its binding signal is -0.291 z-score.
